Two compounds from patent US20220312762A1, “USE OF ENCAPSULATED STEROLS TO MODIFY GROWTH OF CROPS, CONTROL, AGRICULTURAL PESTS AND AS NON-TOXIC PRE-EMERGENT HERBICIDES” (The Texas A&M University System, priority 2019, published 2022) can be followed below.

For the data set, the system named is Arabidopsis thaliana. Kind of data set: Sterol analysis (GC-MS) of plants treated with exogenous sterol. The conditions noted are these: 100 μM exogenous sterol. In kind it is in vivo.

As for `CC(C)CCC[C@@H](C)[C@H]1CC[C@H]2[C@@H]3CC=C4C[C@@H](O)CC[C@]4(C)[C@H]3CC[C@]12C` [cholesterol, Cholesterol], the “total free sterols of the plants” value is “decrease”.

In the case of `CC[C@H](/C=C/[C@@H](C)[C@H]1CC[C@H]2[C@@H]3CC=C4C[C@@H](O)CC[C@]4(C)[C@H]3CC[C@]12C)C(C)C` [stigmasterol], the “total free sterols of the plants” value is recorded as “stayed about the same”.
